# Assay results taken from article PMC2943488 (Molecular bioSystems, 2010).
# How the values were obtained:
# [1] = test system: Akt, p70 S6K, MEK–ERK, and p38–HSP27 signaling pathways; conditions: donor #2; 100*Cmax
# [2] = test system: primary human hepatocytes; experiment: Lactate dehydrogenase; format: cell-based; conditions: donor #2; 100*Cmax; ± cytokine mix
compound,measurement,setting,value
Nc1nc2ccc(OC(F)(F)F)cc2s1 [riluzole],activation of the four 'network gauge' signaling pathways compared to control treatments,[1],without significant activation
same,cell death induced by drug,[2],induced cell death
